Article PMC7955884
No constants are given. Whether binding was seen depends on the method and setting. Binding seen in cells or lysates may run through a third protein. Binding can be weak; no strength is given. Where a sequence is shown, tags or fusion partners need not be part of it. Blank lines part the entries; values can stand above or below the binder they belong to.

Columns and labels:
LPA1‐GFP (rice) = assay: co-IP; DEP1-Myc + LPA1-GFP transfected into tobacco leaves; immunoprecipitated with anti-GFP, detected with anti-Myc
LPA1‐nYFP (rice) = assay: split reporter; split-GFP: reconstitution of fluorescence from LPA1-nYFP + DEP1-cCFP, in the nucleus

- binding (LPA1‐GFP (rice)): binds
B1: DEP1‐Myc (protein, UniProt Q67UU9 1-426)
chain: MGEEAVVMEAPRPKSPPRYPDLCGRRRMQLEVQILSREITFLKDELHFLEGAQPVSRSGCIKEINEFVGTKHDPLIPTKRRRHRSCRLFRWIGSKLCICISCLCYCCKCSPKCKRPRCLNCSCSSCCDEPCCKPNCSACCAGSCCSPDCCSCCKPNCSCCKTPSCCKPNCSCSCPSCSSCCDTSCCKPSCTCFNIFSCFKSLYSCFKIPSCFKSQCNCSSPNCCTCTLPSCSCKGCACPSCGCNGCGCPSCGCNGCGCPSCGCNGCGLPSCGCNGCGSCSCAQCKPDCGSCSTNCCSCKPSCNGCCGEQCCRCADCFSCSCPRCSSCFNIFKCSCAGCCSSLCKCPCTTQCFSCQSSCCKRQPSCCKCQSSCCEGQPSCCEGHCCSLPKPSCPECSCGCVWSCKNCTEGCRCPRCRNPCCLSGCLC

- binding (LPA1‐nYFP (rice)): binds
B2: DEP1‐cCFP (protein, UniProt Q67UU9 1-426)
chain: B1 chain
